To fix the notation:
B1: il10ra_site1_sap_12_mot_HHH_b2_02053_af2_000000006_0001_3_19_H_._HHH_b2_04646_0001_0000300016_0000002_0_0001 (protein)
chain: SSSSSDEEEERVRELLEEAEQIPDPEKAAEVLLEALHLALHLGNQELLQEVWEVVKRLGSSSSSS
B2: il10ra_site1_sap_21_mot_HHH_b1_06914_000000280_0001_1_18_H_._HHH_b1_08370_0001_0000500035_0000001_0_0001_af2pred_0001 (protein)
chain: SSSSSDEREEEVERLLEEAKRIDDPHEVAYLLIRAFALATQANDPELEEEVRKVAQELASSSSSS
B3: il10ra_site1_sap_18_mot_HHH_b2_00277_af2_000000172_0001_1_17_H_._HHH_b2_06595_0001_0000400029_0000002_0_0001_af2pred_0001 (protein)
chain: SSSSSSEEERRVLKLAARLLRRASEEEQEELLRLLVRIFMEGDPRLVEELRKLIEEIEKGSSSSS
B4: il10ra_site1_normal_mot_HHH_b2_00800_af2_000000047_0001_1_20_H_._HHH_b1_07634_0001_0000400033_0000002_0 (protein)
chain: SSSSSSEEQEEFRRLEEELEEAKNAQEFYEILRRLIEVASEARDPELLRLVIELLRRFLKSSSSS
B5: il10ra_site1_normal_mot_HHH_b2_06979_000000158_0001_42_57_H_._HHH_b2_02232_0001_0000100004_0000001_0 (protein)
chain: SSSSSENEEVFRLIKEAAELRSEGNPEEAREVLKEAEELAKEAGNELLEINIEFLLRDIEKSSSS
B6: il10ra_site1_normal_mot_HHH_b1_01880_000000285_0001_23_39_H_._HHH_b2_02582_0001_0000300015_0000001_0_af2pred_0001 (protein)
chain: SSSSSSDEFEELLEEAERLAEELGDEEIEIAIKILERLYRESGDPLIKRTLRALLRVLSSSSSSS
B7: il10ra_site1_normal_mot_HHH_b1_00999_000000080_0001_41_55_H_._HHH_b2_03706_0001_0000600031_0000001_0 (protein)
chain: SSSSDYEERVEELLEQAEELAERGNPEEAARLLQEAVRLAYEAKDQELLKLVWEVAKKLGSSSSS
B8: il10ra_site1_normal_mot_1cde5897893f3d1588f92be3b001cdf2_0001_af2_000000130_0001_54_65_H_._HHH_b2_05871_0001_0000300015_0000001_1_af2pred_0001 (protein)
chain: SSSSSDEEVEERVEELLERLHHVDPKEAAQLLHEAARLAAELDNPELLELVFEAAEEVISSSSSS
B9: il10ra_site1_normal_mot_513c16ae44941e68898e0f7c259e5a28_0001_1_000000056_0001_35_50_H_._ems_p1-15H-GBL-16H-GABBL-16H_0062_0001_0001_0002_0001_0000300016_000000 … (protein)
chain: SSSSSSVEELAEEARELAEERGDEEAEDLVEAIKRLAEQGILDPHAAEVSLRALIRLLEESSSSS
B10: il10ra_site1_normal_mot_493e05f641973f3adf044177f88ae147_0001_af2_000000048_0001_1_12_H_._HHH_b1_05964_af2_0001_0000100001_0000002_0_af2pred_0001 (protein)
chain: SSSSSSREETLRFAVEVLVRAFKLSEEQKEELEELAEELLRRGYDPREVLEILLERAKKLSSSSS
B11: il10ra_site1_sap_14_mot_HHH_b2_06497_000000202_0001_1_20_H_._HHH_b1_08167_af2_0001_0000100005_0000001_0_0001 (protein)
chain: SSSSDLEEEVEELLEEAKRIEDPREAAKVLLRALRLAIEAQDPELLRLVWEVVKEVARRLSSSSS
B12: il10ra_site1_sap_21_mot_HHH_b2_02900_000000189_0001_39_52_H_._HHH_b1_05382_0001_0000300031_0000002_0_0001_af2pred_0001 (protein)
chain: SSSSSSNLYELLREITELLKRGNPEEAEELLEELKKEVEEKNDERAKRQAELLERLIKSSSSSSS
B13: il10ra_site1_normal_mot_HHH_b2_04251_af2_000000037_0001_42_56_H_._HHH_b1_00525_0001_0000200026_0000002_0_af2pred_dldesign_0_af2pred (protein)
chain: SSSSSPEDKARIEELKKRLEELLKEDPEKAREVLRELARLALETGDPEAIAYVLEAAKKLESSSS
B14: il10ra_site1_normal_mot_HHH_b2_02900_000000189_0001_39_52_H_._HHH_b2_05056_0001_0000100005_0000003_0_af2pred_0001 (protein)
chain: SSSSSEELERAVKIFREAAEQLYERGNPEAAKLAVRFALALARDNNNEELVEALEKLLEELSSSS
B15: il10ra_site1_sap_14_mot_HHH_b2_06602_000000226_0001_1_16_H_._HHH_b2_00791_0001_0000300021_0000001_0_0001_af2pred_0001 (protein)
chain: SSSSSDVKERAEELFEELRRLIEEGDEEELEKVFHELVELALKYRDREAAKIAARILKEFSSSSS
B16: il10ra_site1_normal_mot_HHH_b2_07579_000000275_0001_1_19_H_._HHH_b2_02385_0001_0000100006_0000001_0 (protein)
chain: SSSSSDEELREVYELLQRALRIDDPEEVRELLRQAEEIAEELGNFVFLWAIEHRLRDLDSSSSSS
B17: il10ra_site1_normal_mot_HHH_b1_05609_af2_000000134_0001_1_18_H_._HHH_b1_03004_0001_0000100007_0000001_0 (protein)
chain: SSSSSLEEILELSRRAFRLLLRGDKEEAEELLEEALELAREANDPRLARVIEDLLQALRSSSSSS
B18: il10ra_site1_sap_17_mot_HHH_b1_02665_000000293_0001_1_18_H_._HHH_b1_03975_0001_0000800017_0000001_0_0001_af2pred_0001 (protein)
chain: SSSSNDISEEVRRLLREASELLQNGNPEEAEKVVERALELAEEAGNEVLRWAAEFLLKLIRSSSS
B19: il10ra_site1_sap_21_mot_HHH_b1_00103_000000293_0001_1_15_H_._b5c6f2848cbf55e1ecbd417c35b42da7_0001_af2_0001_0000600017_0000002_0_0001 (protein)
chain: SSSSSSSSEEMLEFLIYALERAETEQQRRAALRFLEHMAKWANDEEAEEVVEEFKERHSSSSSSS

The list shows a part of the results.

This assay has as its target il10ra, Q13651. The experiment in a line: yeast display titration.
As to B1, the “apparent Kd” value was “inactive: no binding seen”.

Take B2: the “apparent Kd” value is “inactive: no binding seen”.

For B3, the “apparent Kd” value was “inactive: no binding seen”.

As for B4, the “apparent Kd” value is “inactive: no binding seen”.

As for B5, the “apparent Kd” value is “inactive: no binding seen”.

For the molecule B6, the “apparent Kd” value is “inactive: no binding seen”.

Take B7: the “apparent Kd” value was “inactive: no binding seen”.

In the case of B8, the “apparent Kd” value is “inactive: no binding seen”.

As for B9, the “apparent Kd” value is “inactive: no binding seen”.

As to B10, the “apparent Kd” value is “inactive: no binding seen”.

As to B11, the “apparent Kd” value was “inactive: no binding seen”.

On to B12, for which the “apparent Kd” value is “inactive: no binding seen”.

Regarding B13, the “apparent Kd” value is “inactive: no binding seen”.

Regarding B14, the “apparent Kd” value is “inactive: no binding seen”.

Regarding B15, the “apparent Kd” value was “inactive: no binding seen”.

Consider B16, for which the “apparent Kd” value was “inactive: no binding seen”.

With B17, the “apparent Kd” value was “inactive: no binding seen”.

On to B18, for which the “apparent Kd” value was “inactive: no binding seen”.

Take B19: the “apparent Kd” value is “inactive: no binding seen”.

For the origin of these results see PMC10163288.
